According to publication PMC8619209:
These are yes or no findings as the source states them, for the method shown. Binding seen in cells or lysates may run through a third protein. Some entries that bind do so weakly or less than the wild type.

The chains behind the UniProt entries cited, without tags or fusion partners. Where a name states a change or a piece, a line headed by the entry shows the natural chain unless it says otherwise.
UniProt P25999: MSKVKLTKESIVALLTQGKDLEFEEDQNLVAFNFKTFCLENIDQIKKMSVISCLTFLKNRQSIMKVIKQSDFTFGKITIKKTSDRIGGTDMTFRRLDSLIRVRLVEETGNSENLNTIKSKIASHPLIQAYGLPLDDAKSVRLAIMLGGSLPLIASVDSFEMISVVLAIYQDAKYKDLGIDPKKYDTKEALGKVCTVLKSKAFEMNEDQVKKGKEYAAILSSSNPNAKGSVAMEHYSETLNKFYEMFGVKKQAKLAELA
UniProt P26002: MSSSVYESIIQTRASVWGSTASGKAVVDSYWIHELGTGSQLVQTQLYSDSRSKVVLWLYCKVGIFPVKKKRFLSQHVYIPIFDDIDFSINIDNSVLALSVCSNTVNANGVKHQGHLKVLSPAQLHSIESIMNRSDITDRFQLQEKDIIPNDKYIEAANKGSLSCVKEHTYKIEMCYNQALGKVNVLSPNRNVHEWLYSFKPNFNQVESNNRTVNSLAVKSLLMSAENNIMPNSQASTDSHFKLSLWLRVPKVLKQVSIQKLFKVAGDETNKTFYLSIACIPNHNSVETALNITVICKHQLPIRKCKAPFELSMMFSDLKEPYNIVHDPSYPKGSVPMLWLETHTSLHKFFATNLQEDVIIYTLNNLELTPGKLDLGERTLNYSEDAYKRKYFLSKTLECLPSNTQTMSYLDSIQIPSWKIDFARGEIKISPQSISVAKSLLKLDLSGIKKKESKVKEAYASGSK

Target: TSWV ribonucleoprotein complexes (RNPs) isolated from TSWV-infected N. benthamiana (Tomato spotted wilt orthotospovirus (isolate BR-01)) (UniProt P25999)
Assay: co-sedimentation

“TSWV RNA silencing suppressor NSs (from UniProt P26002 1-464)” was tested, and the binding was “binds”.
